Measurements as given in the supplement of paper PMC6078165.
Values are relative to the signal before dosing, not to a vehicle control; the signal also falls without drug.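 Fibroblast labels denote human fibroblasts, mainly primary ones from uterus (C12385, HUF), lung (H6013), bone (Hs27A), adrenal (HADF) and skin (WS1), plus mammary HMF and breast cancer-associated Hs343T. Cancer cells are basal-like or mesenchymal-like triple-negative breast cancer lines. A hit is a response shift exceeding 3x replicate standard deviation. The tissue of the other fibroblasts is not given here.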

Test system: HCC1143
Experiment: relative JC-1 red fluorescence (viability) vs pre-drug, coculture with fibroblast (fraction); higher = more viable cancer cells
Protocol: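 JC-1 labelled TNBC cells cocultured 1:1 (1,500 cells each) with CellTrace Violet stained primary or stromal fibroblasts in 384-well plates in FluoroBrite medium, treated with one of 42 anticancer drugs at 0.1, 1, 10 or 100 uM. JC-1 red fluorescence (mitochondrial integrity in cancer cells only) was read by plate reader every 8 h for 72 h. Values are normalised to each well's pre-drug value. The stock of one drug was tenfold lower, so its dose labels may be too high.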

O=NN(CCCl)C(=O)NC1CCCCC1 [Lomustine]
relative JC-1 red fluorescence
Details | 8 h | 16 h | 24 h | 32 h | 40 h | 48 h | 56 h | 64 h | 72 h
0.1 µM, coculture fibroblast: C12385 | 0.8433 | 0.7797 | 0.723 | 0.664 | 0.593 | 0.546 | 0.51 | 0.477 | 0.466
0.1 µM, coculture fibroblast: H6013 | 0.736 | 0.685 | 0.644 | 0.625 | 0.576 | 0.57 | 0.543 | 0.523 | 0.491
0.1 µM, coculture fibroblast: H6019 | 0.82 | 0.756 | 0.724 | 0.669 | 0.627 | 0.597 | 0.542 | 0.496 | 0.461
0.1 µM, coculture fibroblast: H6076 | 0.83703 | 0.846 | 0.819 | 0.778 | 0.731 | 0.723 | 0.704 | 0.688 | 0.696
0.1 µM, coculture fibroblast: H6231 | 0.787 | 0.764 | 0.696 | 0.615 | 0.599 | 0.571 | 0.536 | 0.498 | 0.483
0.1 µM, coculture fibroblast: HADF | 0.748 | 0.717 | 0.687 | 0.691 | 0.621 | 0.604 | 0.579 | 0.564 | 0.54
0.1 µM, coculture fibroblast: HCFa | 0.797 | 0.748 | 0.72 | 0.693 | 0.627 | 0.612 | 0.574 | 0.541 | 0.517
0.1 µM, coculture fibroblast: HCPF | 0.824 | 0.837 | 0.794 | 0.715 | 0.736 | 0.718 | 0.689 | 0.668 | 0.671
0.1 µM, coculture fibroblast: HHSteC | 0.86 | 0.819 | 0.788 | 0.747 | 0.67283 | 0.649 | 0.613 | 0.581 | 0.54
0.1 µM, coculture fibroblast: HMF | 0.806 | 0.806 | 0.725 | 0.6552 | 0.632 | 0.604 | 0.567 | 0.534 | 0.512
0.1 µM, coculture fibroblast: HPFa | 0.86057 | 0.783 | 0.747 | 0.65 | 0.595 | 0.554 | 0.499 | 0.445 | 0.408
0.1 µM, coculture fibroblast: HUF | 0.842 | 0.779 | 0.722 | 0.649 | 0.598 | 0.5793 | 0.5327 | 0.5033 | 0.487
0.1 µM, coculture fibroblast: Hs5 | 0.846 | 0.904 | 0.847 | 0.786 | 0.742 | 0.701 | 0.678 | 0.653 | 0.645
0.1 µM, coculture fibroblast: Hs27A | 0.702 | 0.651 | 0.613 | 0.62 | 0.504 | 0.494 | 0.451 | 0.424 | 0.399
0.1 µM, coculture fibroblast: Hs343T | 0.812 | 0.868 | 0.816 | 0.7114 | 0.707 | 0.657 | 0.6131 | 0.5849 | 0.551
0.1 µM, coculture fibroblast: WS1 | 0.843 | 0.7603 | 0.713 | 0.635 | 0.58 | 0.544 | 0.503 | 0.479 | 0.462
1 µM, coculture fibroblast: C12385 | 0.8698 | 0.787 | 0.712 | 0.64 | 0.574 | 0.517 | 0.464 | 0.418 | 0.392
1 µM, coculture fibroblast: H6013 | 0.739 | 0.642 | 0.59 | 0.555 | 0.485 | 0.47 | 0.437 | 0.418 | 0.372
1 µM, coculture fibroblast: H6019 | 0.808 | 0.728 | 0.673 | 0.613 | 0.56 | 0.534 | 0.48 | 0.439 | 0.4
1 µM, coculture fibroblast: H6076 | 0.808 | 0.7578 | 0.712 | 0.682 | 0.636 | 0.617 | 0.5856 | 0.567 | 0.574
1 µM, coculture fibroblast: H6231 | 0.82 | 0.815 | 0.731 | 0.635 | 0.6356 | 0.602 | 0.56 | 0.526 | 0.499
1 µM, coculture fibroblast: HADF | 0.742 | 0.664 | 0.645 | 0.653 | 0.571 | 0.549 | 0.517 | 0.488 | 0.458
1 µM, coculture fibroblast: HCFa | 0.751 | 0.662 | 0.6134 | 0.585 | 0.488 | 0.4439 | 0.3862 | 0.3528 | 0.32
1 µM, coculture fibroblast: HCPF | 0.831 | 0.842 | 0.804 | 0.703 | 0.728 | 0.705 | 0.682 | 0.652 | 0.651
1 µM, coculture fibroblast: HHSteC | 0.839 | 0.755 | 0.726 | 0.685 | 0.623 | 0.592 | 0.543 | 0.506 | 0.445
1 µM, coculture fibroblast: HMF | 0.786 | 0.7501 | 0.679 | 0.6044 | 0.571 | 0.536 | 0.4982 | 0.4641 | 0.439
1 µM, coculture fibroblast: HPFa | 0.917 | 0.8326 | 0.802 | 0.714 | 0.648 | 0.602 | 0.534 | 0.48 | 0.431
1 µM, coculture fibroblast: HUF | 0.8668 | 0.777 | 0.72 | 0.643 | 0.587 | 0.554 | 0.497 | 0.457 | 0.427
1 µM, coculture fibroblast: Hs5 | 0.864 | 0.857 | 0.831 | 0.806 | 0.751 | 0.719 | 0.693 | 0.657 | 0.629
1 µM, coculture fibroblast: Hs27A | 0.713 | 0.641 | 0.62 | 0.636 | 0.515 | 0.495 | 0.448 | 0.41 | 0.396
1 µM, coculture fibroblast: Hs343T | 0.798 | 0.809 | 0.735 | 0.634 | 0.626 | 0.581 | 0.521 | 0.491 | 0.456
1 µM, coculture fibroblast: WS1 | 0.85 | 0.757 | 0.699 | 0.634 | 0.576 | 0.542 | 0.496 | 0.456 | 0.436
